{
  "sequences": {"note": "Sequences of proteins named here, by UniProt entry; tags and fusion partners are left off. A change or cut given only in a name is not applied to a line headed by its entry.", "UniProt P32519": "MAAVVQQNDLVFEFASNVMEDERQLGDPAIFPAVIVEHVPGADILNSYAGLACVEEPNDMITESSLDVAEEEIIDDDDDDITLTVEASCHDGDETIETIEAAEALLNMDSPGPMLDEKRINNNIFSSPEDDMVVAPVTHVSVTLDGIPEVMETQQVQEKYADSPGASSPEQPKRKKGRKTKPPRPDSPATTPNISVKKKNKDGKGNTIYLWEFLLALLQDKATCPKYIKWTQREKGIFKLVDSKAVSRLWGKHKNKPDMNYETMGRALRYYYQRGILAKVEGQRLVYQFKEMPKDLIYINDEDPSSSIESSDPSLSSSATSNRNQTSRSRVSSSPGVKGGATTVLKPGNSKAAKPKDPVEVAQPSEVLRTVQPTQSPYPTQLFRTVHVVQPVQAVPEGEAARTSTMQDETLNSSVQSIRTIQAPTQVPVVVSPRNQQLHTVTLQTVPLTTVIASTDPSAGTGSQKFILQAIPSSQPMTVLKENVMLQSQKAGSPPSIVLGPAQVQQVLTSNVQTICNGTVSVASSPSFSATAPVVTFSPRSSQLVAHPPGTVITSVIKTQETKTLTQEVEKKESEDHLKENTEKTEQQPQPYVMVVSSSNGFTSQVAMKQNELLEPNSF"},
  "source": "paper PMC7862700",
  "note": "The list shows a part of the results, in another mix than the full data. At the low end of the ranking the order means little.",
  "data": [
    {"molecular_target": "ELF1 (UniProt P32519)", "assay": "DAPPL (digital affinity profiling via proximity ligation, sequencing)", "settings": "10 mM Tris-HCl pH 7.5, 50 mM NaCl, 1 mM DTT, 4% glycerol, room temperature, 30 min; GST-TFs on glutathione beads, 16-mer random dsDNA library, 0.1% …; high values mean tight binding; double strand, one strand shown; scale: fold enrichment (6-mer frequency, TF over GST control)", "values": [
      {"sequence": "ACTCTT", "binding signal": 1.25},
      {"sequence": "AATTGC", "binding signal": 1.34},
      {"sequence": "ATTCCC", "binding signal": 1.4},
      {"sequence": "ACATTC", "binding signal": 1.37},
      {"sequence": "AAGCAG", "binding signal": 1.12},
      {"sequence": "TCAATA", "binding signal": 1.17},
      {"sequence": "TTTAGG", "binding signal": 0.967},
      {"sequence": "CTTCTG", "binding signal": 1.34},
      {"sequence": "AAAACT", "binding signal": 1.25},
      {"sequence": "GCCAAT", "binding signal": 1.04},
      {"sequence": "TTTCTT", "binding signal": 1.38},
      {"sequence": "GGAAAC", "binding signal": 1.22},
      {"sequence": "AACAAT", "binding signal": 1.29},
      {"sequence": "AGGTAT", "binding signal": 1.04},
      {"sequence": "TCTCAC", "binding signal": 1.39},
      {"sequence": "GTAAAA", "binding signal": 1.13},
      {"sequence": "ATAGCA", "binding signal": 1.14},
      {"sequence": "CTTGTT", "binding signal": 1.21},
      {"sequence": "TAACCC", "binding signal": 1.28},
      {"sequence": "TCCCTC", "binding signal": 1.51},
      {"sequence": "TTCCGT", "binding signal": 1.74},
      {"sequence": "GATACT", "binding signal": 1.1},
      {"sequence": "CCTGGA", "binding signal": 1.4},
      {"sequence": "CTAAGC", "binding signal": 1.15},
      {"sequence": "TACGTT", "binding signal": 1.29},
      {"sequence": "GATACG", "binding signal": 1.15},
      {"sequence": "CCGTAA", "binding signal": 1.09},
      {"sequence": "TCGCCT", "binding signal": 1.21},
      {"sequence": "TGCTAT", "binding signal": 1.46},
      {"sequence": "GTTTAA", "binding signal": 1.13},
      {"sequence": "TTCTCG", "binding signal": 1.36},
      {"sequence": "CGGCTC", "binding signal": 1.27},
      {"sequence": "TTAACC", "binding signal": 1.31},
      {"sequence": "TCTAAT", "binding signal": 1.14},
      {"sequence": "AGAAGC", "binding signal": 1.08},
      {"sequence": "CTCCTC", "binding signal": 1.32},
      {"sequence": "ATCCCT", "binding signal": 1.31},
      {"sequence": "ATGTCA", "binding signal": 1.16},
      {"sequence": "CTCTGG", "binding signal": 1.34},
      {"sequence": "ATTATT", "binding signal": 1.13}
    ]}
  ]
}
